One substance from article PMC8079274 can be followed below.

Results are given in words; binding and its absence hold for the method and conditions named. Binding seen in cells or lysates may run through a third protein. Some results given as binding are weak or reduced against the parent protein; the word gives no strength.

The assay concerns the target T1, KSR1 in KSR1+/+ mouse embryo fibroblasts (cells that overexpress KSR1) (UniProt Q61097).
T1 sequence: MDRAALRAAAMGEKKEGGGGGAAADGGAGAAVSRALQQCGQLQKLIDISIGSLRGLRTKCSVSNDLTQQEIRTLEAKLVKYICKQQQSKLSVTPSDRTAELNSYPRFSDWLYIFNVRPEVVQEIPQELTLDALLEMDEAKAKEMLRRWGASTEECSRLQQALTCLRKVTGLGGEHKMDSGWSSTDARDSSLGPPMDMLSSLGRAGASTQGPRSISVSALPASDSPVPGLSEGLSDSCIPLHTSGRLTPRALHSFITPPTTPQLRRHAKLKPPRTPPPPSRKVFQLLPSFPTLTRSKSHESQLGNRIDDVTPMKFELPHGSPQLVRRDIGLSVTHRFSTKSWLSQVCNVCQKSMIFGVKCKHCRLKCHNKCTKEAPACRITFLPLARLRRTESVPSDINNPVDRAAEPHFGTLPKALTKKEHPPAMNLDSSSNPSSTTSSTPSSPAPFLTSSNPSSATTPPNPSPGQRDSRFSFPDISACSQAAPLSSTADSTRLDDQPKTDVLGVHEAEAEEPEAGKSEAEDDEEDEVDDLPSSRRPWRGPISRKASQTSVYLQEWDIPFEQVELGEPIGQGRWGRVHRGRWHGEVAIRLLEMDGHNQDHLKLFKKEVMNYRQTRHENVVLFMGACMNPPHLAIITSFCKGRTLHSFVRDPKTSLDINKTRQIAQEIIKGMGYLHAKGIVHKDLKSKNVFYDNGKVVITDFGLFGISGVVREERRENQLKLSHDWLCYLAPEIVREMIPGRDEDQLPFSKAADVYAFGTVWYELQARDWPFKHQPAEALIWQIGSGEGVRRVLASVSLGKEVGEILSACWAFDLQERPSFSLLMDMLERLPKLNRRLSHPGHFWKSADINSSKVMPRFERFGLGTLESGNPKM
Kind of assay: co-IP; serum-starved KSR1+/+ MEFs with vehicle or 40 μM CGS9343B for 16 h; 1 mg lysate precipitated with anti-KSR1 antibody, blot for MEK1 or ERK.

On to “endogenous MEK1 (from UniProt P31938 1-393)”, for which the binding entry was “binds”.
